Experimental data from publication PMC12084551.
These are yes or no findings as the source states them, for the method shown. A result given as binding can be weak or reduced; the word gives no strength.

The chains behind the UniProt entries cited, without tags or fusion partners. Where a name states a change or a piece, a line headed by the entry shows the natural chain unless it says otherwise.
UniProt Q2XVP4: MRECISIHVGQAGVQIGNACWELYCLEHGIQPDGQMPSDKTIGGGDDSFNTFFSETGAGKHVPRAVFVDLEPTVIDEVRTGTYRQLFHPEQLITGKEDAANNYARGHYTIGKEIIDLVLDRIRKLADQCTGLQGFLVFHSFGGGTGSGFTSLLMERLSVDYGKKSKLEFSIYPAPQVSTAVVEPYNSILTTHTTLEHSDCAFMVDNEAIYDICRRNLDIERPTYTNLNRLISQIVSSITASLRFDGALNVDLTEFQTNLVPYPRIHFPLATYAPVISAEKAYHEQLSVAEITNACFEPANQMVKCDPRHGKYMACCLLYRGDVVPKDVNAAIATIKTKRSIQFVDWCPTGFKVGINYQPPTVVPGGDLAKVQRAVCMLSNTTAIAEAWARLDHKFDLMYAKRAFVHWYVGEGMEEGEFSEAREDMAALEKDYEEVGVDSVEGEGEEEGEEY

Molecular target: α-tubulin (porcine brain, in the microtubule) (pig (porcine brains)) (UniProt Q2XVP4)
Assay: cryo-EM structure; 0.5 μM GMPCPP-microtubules on the grid, 5 μM GAS2-GAR in BRB80 added twice; 14-protofilament microtubules, MiRP/RELION and CryoSPARC; both purified

binding: binds
Substance: GAS2-GAR domain (residues 198–314) (from UniProt P11862 198-314) (domain or fragment)
